Results deposited as PubChem BioAssay AID743121 (NCATS, 2013).
Test: 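Partners whose loss is lethal together with topoisomerase I blockade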 (primary screen). Cell system: MDA-MB-231 cells, a human breast cancer line. Knock-down reagent: single siRNA against human genes, 20 nM siRNA (0.8 pmol per well). Duration: 120 h (drug added 48 h after transfection, read 72 h later). Conditions: camptothecin 20 nM (about EC30) for 72 h; vehicle 0.1% DMSO in parallel plates. Detection: 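Cell viability by ATP luminescence (CellTiter-Glo) as % of non-targeting siRNA wells, and the log2 ratio of viability without drug over viability with camptothecin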. Scale: log2 vehicle/camptothecin viability: higher = stronger sensitisation to camptothecin; viability with camptothecin: higher = more viable cells. Rule for the call: 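Each gene scored by redundant siRNA activity (RSA) over its individual siRNA ratios; a gene is called active at p < 0.001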.
This is an unselected part of about 26,000 deposited reagents. Of all reagents, 167 (0.63%) got an active call. 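Calls are per gene from RSA p-values that are not deposited; an individual active-marked siRNA can sensitise only weakly.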 The numbers tell different reagents against one gene apart. Not all columns of the deposit are shown.

AK5 #1 showed log2 vehicle/camptothecin viability -0.227; viability with camptothecin (% of control) = 25.8; inactive. Knock-down of AK5 #2 gave: log2 vehicle/camptothecin viability -0.552; viability with camptothecin (% of control) = 88.2; inactive. AK5 #3 scored log2 vehicle/camptothecin viability 0.0304; viability with camptothecin (% of control) = 45.1; inactive. With knock-down of AK5 #4 the results were log2 vehicle/camptothecin viability -0.239; viability with camptothecin (% of control) = 80.3; inactive. With knock-down of IRF1 #1, the record shows log2 vehicle/camptothecin viability -0.442; viability with camptothecin (% of control) = 80.8; inactive. Knock-down of IRF1 #2 resulted in: log2 vehicle/camptothecin viability -0.204; viability with camptothecin (% of control) = 60.1; inactive.

With knock-down of IRF1 #3, the record shows log2 vehicle/camptothecin viability -0.367; viability with camptothecin (% of control) = 50.1; inactive. With knock-down of IRF1 #4, the screen gave log2 vehicle/camptothecin viability -0.268; viability with camptothecin (% of control) = 55.4; inactive. Depletion of SRP9 #1 resulted in: log2 vehicle/camptothecin viability -0.131; viability with camptothecin (% of control) = 117; inactive. Depletion of SRP9 #2 gave: log2 vehicle/camptothecin viability -0.281; viability with camptothecin (% of control) = 89.7; inactive. After knock-down of SRP9 #3, the record shows log2 vehicle/camptothecin viability -0.153; viability with camptothecin (% of control) = 94.1; inactive. SRP9 #4 showed log2 vehicle/camptothecin viability -0.0304; viability with camptothecin (% of control) = 107; inactive.

With knock-down of EIF3C #1, the record shows log2 vehicle/camptothecin viability -0.519; viability with camptothecin (% of control) = 50.8; inactive. Against EIF3C #2 the deposit lists log2 vehicle/camptothecin viability -0.0111; viability with camptothecin (% of control) = 24; inactive. EIF3C #3 showed log2 vehicle/camptothecin viability -0.577; viability with camptothecin (% of control) = 57.5; inactive. Against TNFRSF12A #1, the values are log2 vehicle/camptothecin viability -0.25; viability with camptothecin (% of control) = 32.2; inactive. Against TNFRSF12A #2, the entry reads log2 vehicle/camptothecin viability -0.243; viability with camptothecin (% of control) = 65.7; inactive. Depletion of TNFRSF12A #3 came out at: log2 vehicle/camptothecin viability -0.0826; viability with camptothecin (% of control) = 80.4; inactive.

With knock-down of TNFRSF12A #4, the screen gave log2 vehicle/camptothecin viability -0.258; viability with camptothecin (% of control) = 110; inactive. EPM2A #1 showed log2 vehicle/camptothecin viability -0.358; viability with camptothecin (% of control) = 56.5; inactive. Depletion of EPM2A #2 gave: log2 vehicle/camptothecin viability -0.345; viability with camptothecin (% of control) = 80.2; inactive. Knock-down of EPM2A #3 came out at: log2 vehicle/camptothecin viability 0.0781; viability with camptothecin (% of control) = 87.8; inactive. EPM2A #4 gave log2 vehicle/camptothecin viability -0.07; viability with camptothecin (% of control) = 106; inactive. EPM2A #5 scored log2 vehicle/camptothecin viability -0.159; viability with camptothecin (% of control) = 82.8; inactive.

With knock-down of EPM2A #6, the record shows log2 vehicle/camptothecin viability -0.53; viability with camptothecin (% of control) = 39.4; inactive. For ABCG5 #1 the deposit lists log2 vehicle/camptothecin viability -0.0478; viability with camptothecin (% of control) = 45.7; inactive. For ABCG5 #2, the entry reads log2 vehicle/camptothecin viability -0.0485; viability with camptothecin (% of control) = 49.3; inactive. With knock-down of ABCG5 #3, the screen gave log2 vehicle/camptothecin viability -0.0789; viability with camptothecin (% of control) = 101; inactive. ABCG5 #4 showed log2 vehicle/camptothecin viability 0.173; viability with camptothecin (% of control) = 66.5; inactive. Silencing of NR1I3 #1 resulted in: log2 vehicle/camptothecin viability -0.683; viability with camptothecin (% of control) = 48.4; inactive.

After knock-down of NR1I3 #2, the screen gave log2 vehicle/camptothecin viability 0.153; viability with camptothecin (% of control) = 88.6; inactive. After knock-down of NR1I3 #3, the record shows log2 vehicle/camptothecin viability -0.581; viability with camptothecin (% of control) = 74.3; inactive. After knock-down of NR1I3 #4, the record shows log2 vehicle/camptothecin viability -0.62; viability with camptothecin (% of control) = 70.5; inactive. CDX4 #1 showed log2 vehicle/camptothecin viability -0.0518; viability with camptothecin (% of control) = 92.4; inactive. With knock-down of CDX4 #2, the record shows log2 vehicle/camptothecin viability 0.0474; viability with camptothecin (% of control) = 102; inactive. CDX4 #3 gave log2 vehicle/camptothecin viability 0.0455; viability with camptothecin (% of control) = 95.8; inactive.

With knock-down of CDX4 #4, the screen gave log2 vehicle/camptothecin viability -0.233; viability with camptothecin (% of control) = 71.2; inactive.

Reprinted from the entries so far for reference:
AK5 #4 → log2 vehicle/camptothecin viability: -0.239; viability with camptothecin (% of control): 80.3; Outcome: inactive
IRF1 #1 → log2 vehicle/camptothecin viability: -0.442; viability with camptothecin (% of control): 80.8; Outcome: inactive
IRF1 #2 → log2 vehicle/camptothecin viability: -0.204; viability with camptothecin (% of control): 60.1; Outcome: inactive
IRF1 #3 → log2 vehicle/camptothecin viability: -0.367; viability with camptothecin (% of control): 50.1; Outcome: inactive
